Reference: the supplement of paper PMC12823440, “Inhibitors supercharge kinase turnover through native proteolytic circuits” (Nature, 2025)
Structures can show the parent of a compound that is named as a salt. The list shows a part of the results. The calls rarely recur for the same compound in another form.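 In K562 cells expressing nanoluciferase-fused kinases, luminescence was recorded at 4 h intervals between 2 and 18 h, normalized as percent of control with DMSO at 100% and a positive control at 0%. A significant (2 sigma) signal drop marks a time point as decreased. The authors' rule for a hit is not shown and takes in more than the number of time points.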

By UniProt entry, the sequences of proteins in these tests, tags left out. Where a name states a change or a piece, a line headed by the entry shows the natural chain unless it says otherwise.
UniProt Q8IWU2: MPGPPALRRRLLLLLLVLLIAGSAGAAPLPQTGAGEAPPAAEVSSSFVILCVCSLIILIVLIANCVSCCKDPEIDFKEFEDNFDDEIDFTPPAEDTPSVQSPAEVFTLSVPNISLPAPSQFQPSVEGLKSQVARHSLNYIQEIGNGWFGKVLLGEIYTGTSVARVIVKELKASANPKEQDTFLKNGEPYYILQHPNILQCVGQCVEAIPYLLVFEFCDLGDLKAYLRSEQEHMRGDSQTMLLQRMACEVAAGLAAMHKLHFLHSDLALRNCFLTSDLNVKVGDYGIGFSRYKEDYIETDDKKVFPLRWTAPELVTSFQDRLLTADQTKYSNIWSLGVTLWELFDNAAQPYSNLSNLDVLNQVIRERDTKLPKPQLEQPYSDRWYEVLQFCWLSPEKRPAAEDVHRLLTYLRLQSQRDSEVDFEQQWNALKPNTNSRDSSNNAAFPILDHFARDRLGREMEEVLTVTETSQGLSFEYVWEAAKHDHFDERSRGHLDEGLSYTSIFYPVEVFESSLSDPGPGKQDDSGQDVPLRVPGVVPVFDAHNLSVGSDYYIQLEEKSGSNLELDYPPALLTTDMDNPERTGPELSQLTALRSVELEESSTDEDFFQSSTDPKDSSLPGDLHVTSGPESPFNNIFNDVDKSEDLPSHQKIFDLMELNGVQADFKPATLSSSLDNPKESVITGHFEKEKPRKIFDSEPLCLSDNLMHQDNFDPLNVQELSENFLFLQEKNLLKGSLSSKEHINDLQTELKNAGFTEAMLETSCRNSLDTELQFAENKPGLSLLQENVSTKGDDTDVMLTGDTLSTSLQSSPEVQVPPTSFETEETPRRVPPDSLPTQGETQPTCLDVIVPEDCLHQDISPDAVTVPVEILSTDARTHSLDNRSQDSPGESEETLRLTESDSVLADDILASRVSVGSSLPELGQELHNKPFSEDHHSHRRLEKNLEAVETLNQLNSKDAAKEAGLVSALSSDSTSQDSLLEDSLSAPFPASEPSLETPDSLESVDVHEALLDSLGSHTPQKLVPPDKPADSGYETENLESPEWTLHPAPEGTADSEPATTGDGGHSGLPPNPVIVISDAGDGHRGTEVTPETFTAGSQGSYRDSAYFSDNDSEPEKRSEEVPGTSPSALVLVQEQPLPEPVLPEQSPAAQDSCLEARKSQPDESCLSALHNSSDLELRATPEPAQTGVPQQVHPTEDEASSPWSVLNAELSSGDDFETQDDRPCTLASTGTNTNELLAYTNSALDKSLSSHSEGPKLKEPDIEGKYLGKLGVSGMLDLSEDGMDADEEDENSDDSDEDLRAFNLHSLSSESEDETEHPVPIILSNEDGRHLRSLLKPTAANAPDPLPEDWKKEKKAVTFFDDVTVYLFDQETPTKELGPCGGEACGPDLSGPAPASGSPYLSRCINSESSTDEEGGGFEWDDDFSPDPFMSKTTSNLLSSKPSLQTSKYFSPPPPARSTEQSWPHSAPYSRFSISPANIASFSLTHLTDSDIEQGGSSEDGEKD
UniProt P49137, whole entry, looked up: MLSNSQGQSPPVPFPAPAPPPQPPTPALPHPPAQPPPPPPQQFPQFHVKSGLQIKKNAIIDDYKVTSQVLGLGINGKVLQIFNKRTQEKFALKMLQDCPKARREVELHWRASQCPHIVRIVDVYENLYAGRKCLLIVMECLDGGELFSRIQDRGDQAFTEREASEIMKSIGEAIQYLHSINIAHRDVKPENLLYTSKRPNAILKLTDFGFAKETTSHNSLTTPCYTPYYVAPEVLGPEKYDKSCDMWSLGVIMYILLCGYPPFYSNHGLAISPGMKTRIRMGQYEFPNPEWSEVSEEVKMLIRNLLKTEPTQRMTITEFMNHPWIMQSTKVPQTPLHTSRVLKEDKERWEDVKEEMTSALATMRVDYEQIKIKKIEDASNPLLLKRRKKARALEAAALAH
UniProt Q9BUB5: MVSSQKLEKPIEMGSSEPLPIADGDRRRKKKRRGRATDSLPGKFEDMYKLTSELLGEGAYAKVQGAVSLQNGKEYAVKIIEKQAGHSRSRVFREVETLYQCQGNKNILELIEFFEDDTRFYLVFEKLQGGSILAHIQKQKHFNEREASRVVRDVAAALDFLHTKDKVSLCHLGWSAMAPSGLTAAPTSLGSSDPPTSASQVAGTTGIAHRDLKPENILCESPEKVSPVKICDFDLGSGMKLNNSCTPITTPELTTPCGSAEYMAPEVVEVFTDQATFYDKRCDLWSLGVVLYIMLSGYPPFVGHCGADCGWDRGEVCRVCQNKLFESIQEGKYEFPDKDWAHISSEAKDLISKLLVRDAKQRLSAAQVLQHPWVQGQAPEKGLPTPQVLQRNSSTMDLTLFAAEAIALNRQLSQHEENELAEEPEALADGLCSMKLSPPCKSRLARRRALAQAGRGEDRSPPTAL
UniProt Q16620, whole entry, looked up: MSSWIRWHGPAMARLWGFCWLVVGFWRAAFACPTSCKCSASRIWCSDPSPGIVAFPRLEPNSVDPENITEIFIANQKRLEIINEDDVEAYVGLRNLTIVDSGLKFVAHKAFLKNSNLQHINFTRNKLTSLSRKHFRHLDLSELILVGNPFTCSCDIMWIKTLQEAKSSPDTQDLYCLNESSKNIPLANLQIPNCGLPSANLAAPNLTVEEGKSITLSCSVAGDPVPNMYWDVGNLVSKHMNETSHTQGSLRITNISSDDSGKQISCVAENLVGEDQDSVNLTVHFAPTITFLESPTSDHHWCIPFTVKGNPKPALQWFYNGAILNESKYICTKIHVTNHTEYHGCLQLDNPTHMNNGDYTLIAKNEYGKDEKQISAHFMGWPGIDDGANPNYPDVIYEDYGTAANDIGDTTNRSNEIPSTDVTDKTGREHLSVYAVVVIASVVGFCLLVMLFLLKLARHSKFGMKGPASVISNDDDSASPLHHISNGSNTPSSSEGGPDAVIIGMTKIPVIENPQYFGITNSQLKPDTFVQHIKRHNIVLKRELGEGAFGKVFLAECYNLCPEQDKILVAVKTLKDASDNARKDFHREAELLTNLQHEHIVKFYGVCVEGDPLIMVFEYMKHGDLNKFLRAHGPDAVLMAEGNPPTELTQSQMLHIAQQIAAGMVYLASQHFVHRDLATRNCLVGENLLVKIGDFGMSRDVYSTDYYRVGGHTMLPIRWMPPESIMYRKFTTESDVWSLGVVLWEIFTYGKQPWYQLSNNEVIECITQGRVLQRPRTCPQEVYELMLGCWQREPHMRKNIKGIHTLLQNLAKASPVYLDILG
UniProt P42356, whole entry, looked up: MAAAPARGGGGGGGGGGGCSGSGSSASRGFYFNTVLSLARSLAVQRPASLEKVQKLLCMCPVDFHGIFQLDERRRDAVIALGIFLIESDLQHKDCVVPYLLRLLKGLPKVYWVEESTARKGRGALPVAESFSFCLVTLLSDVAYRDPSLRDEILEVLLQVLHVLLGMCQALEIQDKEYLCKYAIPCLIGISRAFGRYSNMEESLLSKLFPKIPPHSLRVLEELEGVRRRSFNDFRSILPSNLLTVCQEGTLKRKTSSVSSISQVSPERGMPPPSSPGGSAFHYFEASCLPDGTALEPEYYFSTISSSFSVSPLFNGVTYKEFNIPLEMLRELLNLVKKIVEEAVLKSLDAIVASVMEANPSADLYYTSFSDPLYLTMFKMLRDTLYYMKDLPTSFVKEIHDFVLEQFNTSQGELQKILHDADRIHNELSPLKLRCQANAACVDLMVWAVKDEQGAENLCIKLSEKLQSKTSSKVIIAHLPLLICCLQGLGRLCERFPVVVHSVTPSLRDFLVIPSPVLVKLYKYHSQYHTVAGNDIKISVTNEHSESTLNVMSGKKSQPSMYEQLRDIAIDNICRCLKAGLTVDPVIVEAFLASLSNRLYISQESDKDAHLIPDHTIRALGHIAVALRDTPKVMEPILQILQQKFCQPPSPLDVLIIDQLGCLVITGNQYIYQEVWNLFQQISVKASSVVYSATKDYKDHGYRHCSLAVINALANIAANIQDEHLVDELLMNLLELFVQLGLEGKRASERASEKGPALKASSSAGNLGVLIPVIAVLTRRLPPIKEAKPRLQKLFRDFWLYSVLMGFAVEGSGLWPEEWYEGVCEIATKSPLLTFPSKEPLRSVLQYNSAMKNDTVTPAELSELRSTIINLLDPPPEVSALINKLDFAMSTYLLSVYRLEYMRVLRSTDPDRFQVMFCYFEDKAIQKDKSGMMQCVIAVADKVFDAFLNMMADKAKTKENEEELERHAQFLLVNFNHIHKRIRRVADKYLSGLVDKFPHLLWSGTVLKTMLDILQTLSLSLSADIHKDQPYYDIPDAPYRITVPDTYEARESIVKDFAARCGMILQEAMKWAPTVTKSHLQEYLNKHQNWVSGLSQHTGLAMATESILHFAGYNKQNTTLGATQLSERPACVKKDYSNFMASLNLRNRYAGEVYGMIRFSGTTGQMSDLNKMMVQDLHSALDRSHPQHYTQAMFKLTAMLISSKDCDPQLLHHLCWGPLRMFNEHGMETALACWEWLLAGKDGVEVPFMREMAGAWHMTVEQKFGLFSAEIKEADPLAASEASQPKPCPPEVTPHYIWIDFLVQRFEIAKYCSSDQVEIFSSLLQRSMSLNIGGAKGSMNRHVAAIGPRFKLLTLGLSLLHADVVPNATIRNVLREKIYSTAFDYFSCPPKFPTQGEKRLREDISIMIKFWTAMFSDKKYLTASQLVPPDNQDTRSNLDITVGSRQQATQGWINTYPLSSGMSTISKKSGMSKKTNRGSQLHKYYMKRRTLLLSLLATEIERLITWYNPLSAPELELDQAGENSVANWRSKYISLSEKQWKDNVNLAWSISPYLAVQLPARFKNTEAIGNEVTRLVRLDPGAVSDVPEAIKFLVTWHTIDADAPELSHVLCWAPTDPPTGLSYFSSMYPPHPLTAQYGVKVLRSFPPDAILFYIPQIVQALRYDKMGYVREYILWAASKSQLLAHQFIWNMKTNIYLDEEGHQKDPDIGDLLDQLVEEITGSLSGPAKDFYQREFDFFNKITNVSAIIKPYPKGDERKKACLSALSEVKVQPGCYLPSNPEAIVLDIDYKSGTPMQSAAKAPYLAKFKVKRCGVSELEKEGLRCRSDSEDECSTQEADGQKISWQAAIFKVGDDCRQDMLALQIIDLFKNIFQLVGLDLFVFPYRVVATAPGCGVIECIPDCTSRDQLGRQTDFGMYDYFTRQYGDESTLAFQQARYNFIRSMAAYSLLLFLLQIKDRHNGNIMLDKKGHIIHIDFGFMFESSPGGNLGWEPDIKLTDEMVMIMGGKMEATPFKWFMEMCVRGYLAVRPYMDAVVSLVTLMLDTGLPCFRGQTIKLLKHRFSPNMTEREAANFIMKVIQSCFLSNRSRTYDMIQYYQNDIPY
UniProt P53350, whole entry: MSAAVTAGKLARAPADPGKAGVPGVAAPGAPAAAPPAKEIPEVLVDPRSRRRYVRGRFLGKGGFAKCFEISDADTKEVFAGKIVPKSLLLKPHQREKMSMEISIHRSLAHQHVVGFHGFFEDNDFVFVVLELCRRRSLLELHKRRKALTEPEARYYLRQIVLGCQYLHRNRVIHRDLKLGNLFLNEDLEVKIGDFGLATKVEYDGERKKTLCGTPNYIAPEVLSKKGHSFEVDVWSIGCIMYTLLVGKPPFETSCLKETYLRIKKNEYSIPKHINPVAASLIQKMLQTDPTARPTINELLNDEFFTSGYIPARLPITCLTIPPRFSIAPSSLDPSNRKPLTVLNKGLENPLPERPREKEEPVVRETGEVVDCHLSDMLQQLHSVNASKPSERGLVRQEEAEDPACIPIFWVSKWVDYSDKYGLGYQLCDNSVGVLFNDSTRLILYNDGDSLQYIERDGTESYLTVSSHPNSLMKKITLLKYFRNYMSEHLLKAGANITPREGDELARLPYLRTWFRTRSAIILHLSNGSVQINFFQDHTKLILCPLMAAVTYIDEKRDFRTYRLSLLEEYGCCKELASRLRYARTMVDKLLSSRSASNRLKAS
UniProt Q13131: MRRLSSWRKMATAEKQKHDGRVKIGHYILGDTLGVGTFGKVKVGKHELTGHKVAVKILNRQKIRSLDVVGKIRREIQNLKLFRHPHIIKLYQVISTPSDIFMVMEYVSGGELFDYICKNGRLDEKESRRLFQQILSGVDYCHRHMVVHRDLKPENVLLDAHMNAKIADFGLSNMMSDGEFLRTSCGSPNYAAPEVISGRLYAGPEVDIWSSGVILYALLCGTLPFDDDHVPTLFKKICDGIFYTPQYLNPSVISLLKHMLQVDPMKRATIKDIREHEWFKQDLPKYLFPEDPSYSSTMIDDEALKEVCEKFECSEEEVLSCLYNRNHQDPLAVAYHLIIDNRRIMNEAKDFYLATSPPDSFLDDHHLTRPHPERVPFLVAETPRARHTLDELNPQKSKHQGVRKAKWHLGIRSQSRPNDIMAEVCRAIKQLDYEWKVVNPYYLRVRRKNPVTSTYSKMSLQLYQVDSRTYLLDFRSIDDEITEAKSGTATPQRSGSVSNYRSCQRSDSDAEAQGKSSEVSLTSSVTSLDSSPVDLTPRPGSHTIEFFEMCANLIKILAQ

Key:
Assay in all cases: number of time points (of 5) at which kinase-Nluc abundance scored as decreased, DMSO-normalised (count); higher = more persistent destabilization
Settings in all cases: K562; 2-18 h
LMTK2 = LMTK2 (UniProt Q8IWU2)
LYN = LYN (UniProt P07948)
MAP2K1 = MAP2K1 (UniProt Q02750)
MAP2K2 = MAP2K2 (UniProt P36507)
MAP4K2 = MAP4K2 (UniProt Q12851)
MAPK1 = MAPK1 (UniProt P28482)
MAPK4 = MAPK4 (UniProt P31152)
MAPKAPK2 = MAPKAPK2 (UniProt P49137)
MKNK1 = MKNK1 (UniProt Q9BUB5)
NTRK2 = NTRK2 (UniProt Q16620)
NTRK3 = NTRK3 (UniProt Q16288)
PAK4 = PAK4 (UniProt O96013)
PBK = PBK (UniProt Q96KB5)
PDGFRB = PDGFRB (UniProt P09619)
PDK1 = PDK1 (UniProt Q15118)
PDPK1 = PDPK1 (UniProt O15530)
PIK4CA = PIK4CA (UniProt P42356)
PIK4CB = PIK4CB (UniProt Q9UBF8)
PLK1 = PLK1 (UniProt P53350)
PRKAA1 = PRKAA1 (UniProt Q13131)

Measured: number of time points

C=CC(=O)Nc1cc(Nc2nccc(-c3cn(C)c4ccccc34)n2)c(OC)cc1N(C)CCNC [AZ7550 Mesylate] (2.5 µM)
1: MKNK1 | PDPK1
0: all other assays above

Cc1cccc(COc2cccc(/C=C3\C(=O)NN(c4ccccc4)C3=O)c2)c1 (10 µM)
0: all assays above

Cc1c(C(=O)Nc2ccc(Oc3ccnc4[nH]cc(-c5ccccc5)c34)c(F)c2)c(=O)n(-c2ccc(F)cc2)n1C (10 µM)
1: PDPK1
0: all other assays above

CC(Cc1ccc(O)c(O)c1)C(C)Cc1ccc(O)c(O)c1 (stereo not given) [Nordihydroguaiaretic acid] (2.5 µM)
0: all assays above

COc1ccc(Nc2ncc(C(F)(F)F)c(NC3CC3)n2)cc1OC (10 µM)
1: NTRK2
2: LMTK2 | NTRK3 | PDPK1 | PIK4CA | PIK4CB
0: all other assays above

Clc1ccc(C(c2ccc(Cl)cc2)[n+]2ccn(CC(OCc3ccc(Cl)cc3Cl)c3ccc(Cl)cc3Cl)c2)cc1 (stereo not given) [Calmidazolium chloride] (2.5 µM)
3: MKNK1
1: LMTK2
2: PIK4CB
0: all other assays above

CC(C)CCN1c2nc(Nc3cc(F)c(O)c(F)c3)ncc2N(C)C(=O)C1C (stereo not given) (2.5 µM)
0: all assays above

C=CC(=O)N1CCC[C@@H](n2nc(-c3ccc(Oc4ccccc4)cc3)c3c(N)n[nH]c(=O)c32)C1 [BTK inhibitor 17] (10 µM)
1: MKNK1
0: all other assays above

O=c1cc(-c2ccccc2)oc2cc(O[C@@H]3O[C@H](CO[C@@H]4O[C@H](CO)[C@@H](O)[C@H](O)[C@H]4O)[C@@H](O)[C@H](O)[C@H]3O)c(O)c(O)c12 [Oroxin B] (10 µM)
0: all assays above

C=CC(=O)Nc1cc(Nc2nccc(-c3cn(C)c4ccccc34)n2)c(OC)cc1OCCN(C)C [Rezivertinib] (2.5 µM)
0: all assays above

CC(C)=CCC/C(C)=C/CC/C(C)=C/C=C/C(C)=C/C(=O)O [Peretinoin] (10 µM)
0: all assays above

C=CC(=O)N1CC[C@@H](Oc2nc(Nc3ccc(N4CCC(N5CCN(C)CC5)CC4)cc3)c(C(N)=O)nc2CC)C1 [Naquotinib (mesylate)] (2.5 µM)
0: all assays above

Cc1cc([C@@H](C)Nc2ccccc2C(=O)O)c2nc(N3CCOCC3)cc(=O)n2c1 (10 µM)
0: all assays above

O=C(Nc1cc(Cl)cc2c1[nH]c1cnccc12)c1cccnc1 (10 µM)
0: all assays above

COc1ccc(Br)cc1NC(=O)Nc1cccc2c1ccn2Cc1ccnc(N)c1 (2.5 µM)
0: all assays above

NS(=O)(=O)c1ccc(Nc2nc(-c3cccc(-c4ccccc4)c3)c3[nH]cnc3n2)cc1 (10 µM)
0: all assays above

Cc1cc(Nc2cc(N)ncn2)c(=O)n2c1C(=O)NC21CCCCC1 [Tomivosertib] (10 µM)
0: all assays above

COc1ccc(S(=O)(=O)Nc2cc(-c3c(O)ccc4ccccc34)c(O)c3ccccc23)cc1 (10 µM)
0: all assays above

CCN(CC)CCCC(C)Nc1nc(C)cc(Nc2ccc3nc(C)cc(N)c3c2)n1 (stereo not given) (10 µM)
0: all assays above

NC1(C(=O)NCCCn2cc(-c3ccc(OC(F)(F)F)cc3)c3cc(CN4CCN(Cc5c(Cl)cccc5Cl)CC4)ccc32)CCNCC1 (2.5 µM)
2: LYN
0: all other assays above

CNC(=O)c1ccc2c(C(=Nc3cccc(CN(C)C)c3)c3ccccc3)c(O)[nH]c2c1 [MEK inhibitor] (10 µM)
0: all assays above

NCCOc1ccc(Cl)cc1C(=O)Nc1ccc([N+](=O)[O-])cc1Cl [HJC0152 hydrochloride] (2 µM)
0: all assays above

Fc1ccc2[nH]ccc2c1-c1nc(N2CCOCC2)c2sc(CN3CCN(CC4CC4)CC3)cc2n1 (10 µM)
0: all assays above

CO[C@H]1C[C@@H]2CC[C@@H](C)[C@@](O)(O2)C(=O)C(=O)N2CCCC[C@H]2C(=O)O[C@H]([C@H](C)C[C@@H]2CC[C@@H](OC(=O)C(C)(CO)CO)[C@H](OC)C2)CC(=O)[C@H](C)/C=C(\C)[C@@H](O)[C@@H](OC)C(=O)[C@H](C)C[C@H](C)/C=C/C=C/C=C/1C [Temsirolimus] (2.5 µM)
0: all assays above

Nc1nc(NCCNc2ncc(-n3ccnc3)c(-c3ccc(Cl)cc3Cl)n2)ccc1[N+](=O)[O-] (2.5 µM)
3: NTRK2
1: LMTK2
0: all other assays above

COc1cc2c(cc1OC)/C(=C/c1ccc(O)cc1)C(=O)N2 (10 µM)
0: all assays above

CC(C)n1c(=O)n(C)c2cnc3cc(F)c(-c4ccc(OCCCN5CCCCC5)nc4)cc3c21 (10 µM)
0: all assays above

CN1CCN(c2ccc(Nc3ncc4cc(C#N)c(=O)n(C5CCCC5)c4n3)cc2)CC1 (10 µM)
0: all assays above

At a glance, 2 of the compounds above.
Nc1nc(NCCNc2ncc(-n3ccnc3)c(-c3ccc(Cl)cc3Cl)n2)ccc1[N+](=O)[O-] (2.5 µM)
3: NTRK2
1: LMTK2
0: all other assays above

COc1cc2c(cc1OC)/C(=C/c1ccc(O)cc1)C(=O)N2 (10 µM)
0: all assays above

Remaining list, next part

Cc1cc(O)c2c(c1)C(=O)c1cccc(O)c1C2=O [Chrysophanol] (2 µM)
0: all assays above

O=C(Nc1cccc(-c2nc(-c3ccc(NC(=O)c4cccnc4)cc3Cl)no2)c1)Nc1ccc(NC(=O)C2CC2)c(C(F)(F)F)c1 (2.5 µM)
0: all assays above

Cc1c(C)c(NCC(=O)N(C)C2CCN(Cc3ccc(C(N)=O)cc3)CC2)c(C)c(C)c1N (10 µM)
0: all assays above

Nc1ncnc2c1nc(Br)n2[C@@H]1O[C@@H]2COP(=O)(O)O[C@H]2[C@H]1O [8-Bromo-cAMP sodium salt] (10 µM)
0: all assays above

CC(C)(C)Cc1[nH]nc2c1[C@@](C)(c1ccccc1)C1=C(CC(C)(C)CC1=O)N2 (10 µM)
1: LMTK2
0: all other assays above

COc1cc2nccc(Oc3ccc(NC(=O)c4cn(C(C)C)c(=O)n(-c5ccc(F)cc5)c4=O)cc3F)c2cc1OC (0.5 µM)
1: PLK1
4: PDPK1
0: all other assays above

O=C(O)c1cc(N(Cc2ccccc2O)Cc2cc(O)ccc2O)ccc1O [Lavendustin A] (10 µM)
0: all assays above

Nc1[nH]nc2nc(-c3ccc(NS(=O)(=O)c4cc(Cl)ccc4Cl)cc3)cnc12 (10 µM)
0: all assays above

COc1cc2ncnc(Nc3cccc(I)c3)c2cc1OC (2.5 µM)
0: all assays above

C[C@@H](Nc1ncnc2[nH]c(-c3ccc(O)cc3)cc12)c1ccccc1 (2.5 µM)
0: all assays above

COc1cc(-c2cc(OP(=O)(O)O)cc(-c3cc(OC)c(OC)c(OC)c3)c2)cc(OC)c1OC [Stafia-1] (10 µM)
0: all assays above

COC(=O)/C=C/c1ccccc1 [Methyl cinnamate] (10 µM)
0: all assays above

COc1cc(-c2oc3cc(O)cc(O)c3c(=O)c2O)ccc1O [Isorhamnetin] (10 µM)
0: all assays above

COc1cc(N2CCC(N3CCN(C)CC3)CC2)ccc1Nc1ncc(Cl)c(-c2c[nH]c3ccccc23)n1 (2.5 µM)
0: all assays above

C=CC(=O)Nc1ccc(C(=O)Nc2[nH]nc3c2CN(C(=O)N[C@H](CN(C)C)c2ccccc2)C3(C)C)cc1 (10 µM)
1: LYN | PIK4CA | PLK1 | PRKAA1
2: NTRK2 | NTRK3 | PDGFRB | PDK1 | PIK4CB
3: LMTK2
4: PDPK1
0: all other assays above

COc1cc(N2CCOCC2)ccc1Nc1ncc(F)c(Nc2ccccc2NS(C)(=O)=O)n1 (10 µM)
0: all assays above

CC(C)[C@H](CO)Nc1nc(Nc2cccc(Cl)c2)c2ncn(C(C)C)c2n1 [Purvalanol A] (10 µM)
0: all assays above

O=c1cc(N2CCOCC2)oc2c(-c3ccc4c(c3)OCCO4)csc12 (2.5 µM)
0: all assays above

COC(=O)[C@H](CCSC)NC(=O)c1ccc(NC[C@@H](N)CS)cc1-c1ccccc1 [FTI-277 (hydrochloride)] (10 µM)
0: all assays above
